Measurements taken from patent publication US8735538B1, “Use of methanobactin” (priority 2006, dated 2014).

Legend:
[1] = ITC, metal binding to mb: Pb(II); settings: Pb(II) column, one-site binding model
Method: (§1) FIG. 14. Binding isotherm of 3.2 mM HgCl2 (A), HAuCl4 (B), AgNO3 (C) NiCl2 (D), ZnCl2 (E) or FeCl3 (F) into 400 μM mb (cell) aqueous solution at 25° C. Binding isotherm of 1.6 mM HAuCl4 (B). The curve fittings for two-site binding algorithm were used.
(§2) FIG. 15. Binding isotherm of 3.2 mM CdCl2 (A), CoCl2(B), FeCl3 (C), or MnCl2(D) into […] mb aqueous solution at 25° C. Curve fittings for one-site binding algorithm (B, D) or two-site binding algorithm (A, C) were used.
(§3) ITC was performed with following modifications from the previously described procedure (Choi et al., 2006). First, concentrations of the titrant and cell solutions were raised to 3.2 mM and 0.4 mM, respectively. Second, the interval between titrant injections were decreased to 600 s and the stirring rate decreased to 380 rpm.

[2] = ITC, metal binding to mb: Mn(II); settings: Mn(II) column, one-site fit, 25° C.
Method: as §1, §2, §3

[3] = ITC, metal binding to mb: Ag(I); settings: Ag(I) column
Method: as §1, §2, §3

[4] = Cu(II) column, cited from earlier work
[5] = ITC, metal binding to mb: Hg(II); settings: Hg(II) column
Method: as §1, §2, §3

[6] = ITC, metal binding to mb: Co(II); settings: Co(II) column, one-site fit, 25° C.
Method: as §1, §2, §3

[7] = ITC, metal binding to mb: Zn(II); settings: Zn(II) column
Method: as §1, §2, §3

[8] = ITC, metal binding to mb: Cd(II); settings: Cd(II) column
Method: as §1, §2, §3

[9] = first site, two-site fit, 25° C.

methanobactin [mb] gave an N1 [1] of 0.61 ± 0.003 metal mb^−1, an N1 [2] of 0.54 ± 0.005 metal mb^−1 and an N1 [3, 9] of 0.47 ± 0.006 metal mb^−1. It also gave a ΔG1 [3, 9] of -10.1 kcal/mol, an N1 ([3]; second site) of 0.75 ± 0.007 metal mb^−1 and a ΔG1 ([3]; second site) of -7.74 kcal/mol. The N1 ([4]; first site) was 0.11 ± 0.003 metal mb^−1, the N1 ([4]; second site) was 0.14 ± 0.01 metal mb^−1 and the N1 [5, 9] was 0.25 ± 0.005 metal mb^−1. It also gave an N1 ([5]; second site) of 0.42 ± 0.01 metal mb^−1, an N1 [6] of 0.49 ± 0.003 metal mb^−1 and an N1 [7, 9] of 0.41 ± 0.004 metal mb^−1. The ΔG1 [7, 9] was -9.08 kcal/mol, the ΔH1 [7, 9] was -0.32 ± 0.01 kcal/mol and the ΔS1 [7, 9] was 29.4 cal mol^−1 deg^−1. The N1 ([7]; second site) was 0.13 ± 0.04 metal mb^−1, the ΔG1 ([7]; second site) was -5.8 kcal/mol and the ΔH1 ([7]; second site) was 2.40 ± 0.78 kcal/mol. The ΔS1 ([7]; second site) was 27.5 cal mol^−1 deg^−1, the N1 [8, 9] was 0.2 ± 0.07 metal mb^−1 and the ΔH1 [8, 9] was -3.15 ± 1.7 kcal/mol. The N1 ([8]; second site) was 0.22 ± 0.01 metal mb^−1 and the ΔH1 ([8]; second site) was -18.96 ± 1.04 kcal/mol.

Where two headings read alike, the source gives them in different places.
